Consider six molecules from publication PMC7985710.

What all share (assay): PFOA-PAGE with immunoblot; sonicated lysates (10 μg) of transfected COS-7 cells separated in 5% perfluorooctanoic acid under nonreducing conditions; SR-BI detected with a C-terminal antibody
The target in experiment [1] is WT scavenger receptor class B type I (human SR-BI) (human) (UniProt Q8WTV0).
The target in experiment [2] is R174C-SR-BI (human variant of scavenger receptor class B type I) (human) (UniProt Q8WTV0).
The target in experiment [3] is D185R-SR-BI (human) (UniProt Q8WTV0).
In experiment [4] the target is R174D-SR-BI (human) (UniProt Q8WTV0).
Experiment [5] deals with R174D-SR-BI/D185R-SR-BI (human) (UniProt Q8WTV0).
For experiment [6], the target named is R174K-SR-BI (human) (UniProt Q8WTV0).

No constants are given. Whether binding was seen depends on the method and setting. Some results given as binding are weak or reduced against the parent protein; the word gives no strength.

B1: WT scavenger receptor class B type I (human SR-BI) (receptor, UniProt Q8WTV0-2 1-509)
chain: MGCSAKARWAAGALGVAGLLCAVLGAVMIVMVPSLIKQQVLKNVRIDPSSLSFNMWKEIPIPFYLSVYFFDVMNPSEILKGEKPQVRERGPYVYREFRHKSNITFNNNDTVSFLEYRTFQFQPSKSHGSESDYIVMPNILVLGAAVMMENKPMTLKLIMTLAFTTLGERAFMNRTVGEIMWGYKDPLVNLINKYFPGMFPFKDKFGLFAELNNSDSGLFTVFTGVQNISRIHLVDKWNGLSKVDFWHSDQCNMINGTSGQMWPPFMTPESSLEFYSPEACRSMKLMYKESGVFEGIPTYRFVAPKTLFANGSIYPPNEGFCPCLESGIQNVSTCRFSAPLFLSHPHFLNADPVLAEAVTGLHPNQEAHSLFLDIHPVTGIPMNCSVKLQLSLYMKSVAGIGQTGKIEPVVLPLLWFAESGAMEGETLHTFYTQLVLMPKVMHYAQYVLLALGCVLLLVPVICQIRSQEKCYLFWSSSKKGSKDKEAIQAYSESLMTSAPKGSVLQEAKL
Take B1: in experiment [1], the binding entry is on record as “binds”.

B2: R174C-SR-BI (human variant of scavenger receptor class B type I) (receptor, UniProt Q8WTV0-2 1-509)
chain: MGCSAKARWAAGALGVAGLLCAVLGAVMIVMVPSLIKQQVLKNVRIDPSSLSFNMWKEIPIPFYLSVYFFDVMNPSEILKGEKPQVRERGPYVYREFRHKSNITFNNNDTVSFLEYRTFQFQPSKSHGSESDYIVMPNILVLGAAVMMENKPMTLKLIMTLAFTTLGERAFMNCTVGEIMWGYKDPLVNLINKYFPGMFPFKDKFGLFAELNNSDSGLFTVFTGVQNISRIHLVDKWNGLSKVDFWHSDQCNMINGTSGQMWPPFMTPESSLEFYSPEACRSMKLMYKESGVFEGIPTYRFVAPKTLFANGSIYPPNEGFCPCLESGIQNVSTCRFSAPLFLSHPHFLNADPVLAEAVTGLHPNQEAHSLFLDIHPVTGIPMNCSVKLQLSLYMKSVAGIGQTGKIEPVVLPLLWFAESGAMEGETLHTFYTQLVLMPKVMHYAQYVLLALGCVLLLVPVICQIRSQEKCYLFWSSSKKGSKDKEAIQAYSESLMTSAPKGSVLQEAKL
For B2, the binding result in experiment [2] was “binds”.

B3: D185R-SR-BI (receptor, UniProt Q8WTV0-2 1-509)
chain: MGCSAKARWAAGALGVAGLLCAVLGAVMIVMVPSLIKQQVLKNVRIDPSSLSFNMWKEIPIPFYLSVYFFDVMNPSEILKGEKPQVRERGPYVYREFRHKSNITFNNNDTVSFLEYRTFQFQPSKSHGSESDYIVMPNILVLGAAVMMENKPMTLKLIMTLAFTTLGERAFMNRTVGEIMWGYKRPLVNLINKYFPGMFPFKDKFGLFAELNNSDSGLFTVFTGVQNISRIHLVDKWNGLSKVDFWHSDQCNMINGTSGQMWPPFMTPESSLEFYSPEACRSMKLMYKESGVFEGIPTYRFVAPKTLFANGSIYPPNEGFCPCLESGIQNVSTCRFSAPLFLSHPHFLNADPVLAEAVTGLHPNQEAHSLFLDIHPVTGIPMNCSVKLQLSLYMKSVAGIGQTGKIEPVVLPLLWFAESGAMEGETLHTFYTQLVLMPKVMHYAQYVLLALGCVLLLVPVICQIRSQEKCYLFWSSSKKGSKDKEAIQAYSESLMTSAPKGSVLQEAKL
For the molecule B3, the binding entry in experiment [3] is “binds”.

B4: R174D-SR-BI (receptor, UniProt Q8WTV0-2 1-509)
chain: MGCSAKARWAAGALGVAGLLCAVLGAVMIVMVPSLIKQQVLKNVRIDPSSLSFNMWKEIPIPFYLSVYFFDVMNPSEILKGEKPQVRERGPYVYREFRHKSNITFNNNDTVSFLEYRTFQFQPSKSHGSESDYIVMPNILVLGAAVMMENKPMTLKLIMTLAFTTLGERAFMNDTVGEIMWGYKDPLVNLINKYFPGMFPFKDKFGLFAELNNSDSGLFTVFTGVQNISRIHLVDKWNGLSKVDFWHSDQCNMINGTSGQMWPPFMTPESSLEFYSPEACRSMKLMYKESGVFEGIPTYRFVAPKTLFANGSIYPPNEGFCPCLESGIQNVSTCRFSAPLFLSHPHFLNADPVLAEAVTGLHPNQEAHSLFLDIHPVTGIPMNCSVKLQLSLYMKSVAGIGQTGKIEPVVLPLLWFAESGAMEGETLHTFYTQLVLMPKVMHYAQYVLLALGCVLLLVPVICQIRSQEKCYLFWSSSKKGSKDKEAIQAYSESLMTSAPKGSVLQEAKL
As for B4, in experiment [4], the binding result is recorded as “binds”.

B5: R174D-SR-BI/D185R-SR-BI (receptor, UniProt Q8WTV0-2 1-509)
chain: MGCSAKARWAAGALGVAGLLCAVLGAVMIVMVPSLIKQQVLKNVRIDPSSLSFNMWKEIPIPFYLSVYFFDVMNPSEILKGEKPQVRERGPYVYREFRHKSNITFNNNDTVSFLEYRTFQFQPSKSHGSESDYIVMPNILVLGAAVMMENKPMTLKLIMTLAFTTLGERAFMNDTVGEIMWGYKRPLVNLINKYFPGMFPFKDKFGLFAELNNSDSGLFTVFTGVQNISRIHLVDKWNGLSKVDFWHSDQCNMINGTSGQMWPPFMTPESSLEFYSPEACRSMKLMYKESGVFEGIPTYRFVAPKTLFANGSIYPPNEGFCPCLESGIQNVSTCRFSAPLFLSHPHFLNADPVLAEAVTGLHPNQEAHSLFLDIHPVTGIPMNCSVKLQLSLYMKSVAGIGQTGKIEPVVLPLLWFAESGAMEGETLHTFYTQLVLMPKVMHYAQYVLLALGCVLLLVPVICQIRSQEKCYLFWSSSKKGSKDKEAIQAYSESLMTSAPKGSVLQEAKL
As to B5, the binding result in experiment [5] is recorded as “binds”.

B6: R174K-SR-BI (receptor, UniProt Q8WTV0-2 1-509)
chain: MGCSAKARWAAGALGVAGLLCAVLGAVMIVMVPSLIKQQVLKNVRIDPSSLSFNMWKEIPIPFYLSVYFFDVMNPSEILKGEKPQVRERGPYVYREFRHKSNITFNNNDTVSFLEYRTFQFQPSKSHGSESDYIVMPNILVLGAAVMMENKPMTLKLIMTLAFTTLGERAFMNKTVGEIMWGYKDPLVNLINKYFPGMFPFKDKFGLFAELNNSDSGLFTVFTGVQNISRIHLVDKWNGLSKVDFWHSDQCNMINGTSGQMWPPFMTPESSLEFYSPEACRSMKLMYKESGVFEGIPTYRFVAPKTLFANGSIYPPNEGFCPCLESGIQNVSTCRFSAPLFLSHPHFLNADPVLAEAVTGLHPNQEAHSLFLDIHPVTGIPMNCSVKLQLSLYMKSVAGIGQTGKIEPVVLPLLWFAESGAMEGETLHTFYTQLVLMPKVMHYAQYVLLALGCVLLLVPVICQIRSQEKCYLFWSSSKKGSKDKEAIQAYSESLMTSAPKGSVLQEAKL
Take B6: the binding entry in experiment [6] is listed as “binds”.
